In US20200330446A1, “COMPOSITIONS AND METHODS OF TREATING SKIN FIBROTIC DISORDERS” (AIVIVA BIOPHARMA, INC., priority 2015, published 2020):
“Also recorded” adds a separate entry of the source. At least one compound was matched to its structure with a doubt left.

Key:
[1] = tested on: rabbit ear hypertrophic scar; experiment: Rabbit ear hypertrophic scar model, histologic evaluation (H&E, Mason's Trichrome); assay type: in vivo, New Zealand White rabbits; conditions: intradermal, Day 42 post wound, compared with untreated and vehicle-treated wound; for fibrosis of treated wound, in words / neovascularization of treated wound, in words: once every two weeks on two occasions
From the text: In rabbits, wounds are created down to the bare cartilage on the ventral surface of the ear using a dermal biopsy punch. […] By both appearance and histological analysis, these scars resemble human hypertrophic scars. In this established model, it was shown that reduced TGF-β expression results in reduced scarring, which is consistent with the current understanding of the pathogenesis of excessive scarring/dermal fibrosis. […] Thus, this rabbit model was also used to assess the compounds of the invention.
(§1) Eight wounds were created on the ventral surface of the ears of each of New Zealand White rabbits using skin punch biopsies, and then the wounds were allowed to heal for approximately 2 weeks.
(§2) A dose (e.g., 1%) of axitinib, nintedanib, riociguat, sorafenib, sunitinib, and/or lenvatinib was administered into the dermal tissue, once every two weeks on two occasions. Again, the specific doses, treatment methods and schedules are for illustration only. One skilled in the art would appreciate that variations and modifications are possible to achieve similar results.
(§3) On Day 42 post wound, the rabbits were sacrificed and dermal tissues were collected for qualitative and quantitative evaluation using hematoxylin and eosin and Mason's Trichrome staining. In addition, TGF-β1 mRNA expression levels were measured using qRT-PCR.
Histologic slides for hematoxylin and eosin stainings were prepared from the wound sites. Tissues were evaluated qualitatively for inflammation, neovascularization, granulation tissue, degrees of re-epithelialization, and degrees of scarring (avascular collagen).

TGF-β1 mRNA = TGF-β1 mRNA expression by qRT-PCR in rabbit ear wound sites; assay type: in vivo, New Zealand White rabbits; conditions: compared with the vehicle-treated wound
Method: as §1, §2, §3

[2] = tested on: full-thickness excision wounds on the dorsum of Yucatan minipigs; experiment: Yucatan minipig full-thickness excision wound model, histologic evaluation (H&E, Mason's Trichrome); assay type: in vivo; conditions: two biweekly treatments, histopathology relative to the untreated wound
From the text: Porcine skin resembles human skin in many aspects. Both species have a relatively thick epidermis, distinct rete pegs, dermal papillae, and dense elastic fibers in the dermis. Furthermore, unlike rodents and rabbits, porcine skin is adherent to the subcutaneous structures, similar to human skin. Because of these anatomical similarities and other parallelisms in wound healing, porcine models have emerged as important foundations for the study of pathophysiology and potential treatment paradigms for abnormal wound healing. It has also been observed in porcine full-thickness wound healing in Yucatan Minipigs that the spatial and temporal expressions of TGF-β1, PDGF and VEGF were similar to the patterns for the growth factors described above. Therefore, the full-thickness excision models in Yucatan minipigs are the models for human wound healing studies.
In this experiment, multiple full-thickness excision wounds were made to the dorsum of Yucatan minipigs, and the wound sites were allowed to re-epithelialized adequately. At four weeks post-wound, the wound sites had normal to pink vascularity and had pliability. […]
On Day 59 post wound, the minipigs were sacrificed and dermal tissues were collected for qualitative and quantitative evaluation using hematoxylin and eosin, and Mason's Trichrome staining. […]

Structure (SMILES) | fibrosis of treated wound, in words [1] | neovascularization of treated wound, in words [1] | mean TGFb1 mRNA level after intradermal treatment, in words (TGF-β1 mRNA) | dermal fibroplasia / fibrosis at treated wound, in words [2] | neovascularization at treated wound, in words [2] | scar tissues of treated wound, in words [1]
CCN(CC)CCNC(=O)c1c(C)[nH]c(/C=C2\C(=O)Nc3ccc(F)cc32)c1C [sunitinib] | similar | more | lower |  |  | 
CNC(=O)c1ccccc1Sc1ccc2c(/C=C/c3ccccn3)n[nH]c2c1 [axitinib] | less | less | lower | reduced | noticeably reduced; also recorded: significantly reduced | less
